Measured values as given in patent US20090142768A1.
No constants are given. Whether binding was seen depends on the method and setting. Some results given as binding are weak or reduced against the parent protein; the word gives no strength. Sequences can lack the tags named with a protein.

Target: Perforin-2/GFP fusion protein expressed in transfected 293 cells (mouse) (UniProt A1L314)
Experiment: negative-stain electron microscopy of trypsin-treated membranes from P2-gfp 293 cells (self-association)

binding: binds
B1: Perforin-2/GFP fusion protein expressed in transfected 293 cells (protein, mouse, UniProt A1L314 20-713, looked up, not shown: large carriers)
chain: DKPLGETGTTGFQICKNALKLPVLEVLPGGGWDNLRNVDMGRVMDLTYTNCKTTEDGQYIIPDEVYTIPQKESNLEMNSEVLESWMNYQSTTSLSINTELALFSRVNGKFSTEFQRMKTLQVKDQAVTTRVQVRNRIYTVKTTPTSELSLGFTKALMDICDQLEKNQTKMATYLAELLILNYGTHVITSVDAGAALVQEDHVRSSFLLDNQNSQNTVTASAGIAFLNIVNFKVETDYISQTSLTKDYLSNRTNSRVQSFGGVPFYPGITLETWQKGITNHLVAIDRAGLPLHFFIKPDKLPGLPGPLVKKLSKTVETAVRHYYTFNTHPGCTNVDSPNFNFQANMDDDSCDAKVTNFTFGGVYQECTELSGDVLCQNLEQKNLLTGDFSCPPGYSPVHLLSQTHEEGYSRLECKKKCTLKIFCKTVCEDVFRVAKAEFRAYWCVAAGQVPDNSGLLFGGVFTDKTINPMTNAQSCPAGYIPLNLFESLKVCVSLDYELGFKFSVPFGGFFSCIMGNPLVNSDTAKDVRAPSLKKCPGGFSQHLAVISDGCQVSYCVKAGIFTGGSLLPVRLPPYTKPPLMSQVATNTVIVTNSETARSWIKDPQTNQWKLGEPLELRRAMTVIHGDSNGMSGGEAAGITLGVTIALGIVITLAIYGTRKYKKKEYQEIEEQESLVGSLATDATVLNGEEDPSPA
